{"sequences": {"note": "By UniProt entry, the sequences of proteins in these tests, tags left out.", "UniProt P42224": "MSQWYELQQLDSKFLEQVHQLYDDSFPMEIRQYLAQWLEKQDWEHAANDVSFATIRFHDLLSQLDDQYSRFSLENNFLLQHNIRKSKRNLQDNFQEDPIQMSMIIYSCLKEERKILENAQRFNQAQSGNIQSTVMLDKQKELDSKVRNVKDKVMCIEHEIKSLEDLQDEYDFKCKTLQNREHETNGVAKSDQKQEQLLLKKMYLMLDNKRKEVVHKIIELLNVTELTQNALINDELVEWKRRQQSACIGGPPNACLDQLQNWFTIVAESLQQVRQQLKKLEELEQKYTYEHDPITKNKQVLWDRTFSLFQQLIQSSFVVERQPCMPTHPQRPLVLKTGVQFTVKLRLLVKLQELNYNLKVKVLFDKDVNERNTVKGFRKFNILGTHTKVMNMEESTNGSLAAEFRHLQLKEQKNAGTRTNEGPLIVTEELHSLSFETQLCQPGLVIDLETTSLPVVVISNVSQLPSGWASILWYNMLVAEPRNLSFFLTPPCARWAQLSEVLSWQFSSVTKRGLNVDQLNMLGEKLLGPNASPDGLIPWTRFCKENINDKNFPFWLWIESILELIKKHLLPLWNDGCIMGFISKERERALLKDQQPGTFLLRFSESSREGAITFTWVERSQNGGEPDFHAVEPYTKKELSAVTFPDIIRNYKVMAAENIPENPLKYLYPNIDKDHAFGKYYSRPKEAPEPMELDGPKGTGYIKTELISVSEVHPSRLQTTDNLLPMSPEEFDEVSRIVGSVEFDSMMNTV"}, "source": "paper PMC5833736", "biological_target": "T1, promyelocytic leukemia zinc-finger protein (PLZF), Flag-tagged (human) (UniProt Q05516)", "T1 sequence": "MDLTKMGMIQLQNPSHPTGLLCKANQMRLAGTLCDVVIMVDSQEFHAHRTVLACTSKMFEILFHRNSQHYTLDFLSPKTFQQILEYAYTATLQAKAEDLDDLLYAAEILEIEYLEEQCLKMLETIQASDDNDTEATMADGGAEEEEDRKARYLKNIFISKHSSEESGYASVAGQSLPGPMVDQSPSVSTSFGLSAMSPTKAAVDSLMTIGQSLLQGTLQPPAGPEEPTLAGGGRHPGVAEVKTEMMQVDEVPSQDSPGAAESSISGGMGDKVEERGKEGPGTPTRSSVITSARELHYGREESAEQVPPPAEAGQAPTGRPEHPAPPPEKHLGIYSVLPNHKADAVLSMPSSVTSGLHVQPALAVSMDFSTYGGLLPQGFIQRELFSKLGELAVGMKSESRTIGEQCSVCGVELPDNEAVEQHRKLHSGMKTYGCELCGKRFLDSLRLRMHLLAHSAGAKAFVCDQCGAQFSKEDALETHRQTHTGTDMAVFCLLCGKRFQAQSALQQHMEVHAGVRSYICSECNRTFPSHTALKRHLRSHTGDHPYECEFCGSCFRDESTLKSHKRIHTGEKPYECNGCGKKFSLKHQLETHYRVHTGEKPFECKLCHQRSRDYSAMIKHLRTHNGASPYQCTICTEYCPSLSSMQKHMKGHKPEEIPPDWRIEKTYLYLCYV", "test": "co-IP; HEK-293T cells transiently transfected with STAT1 and PLZF-Flag plasmids, lysed 48 h after transfection in IP lysis buffer with protease inhibitor cocktail and PMSF; precipitation with Flag beads (Sigma-Aldrich M8823), western blot", "note": "No constants are given. Whether binding was seen depends on the method and setting. Binding seen in cells or lysates may run through a third protein. Some results given as binding are weak or reduced against the parent protein; the word gives no strength. Sequences can lack the tags named with a protein."}
{"substance": "STAT1 (from UniProt P42224 1-750)", "values": [{"measurement": "binding", "result": "binds"}]}
